PubChem BioAssay AID1259424, University of Nebraska Medical Center | 2018
Shown is a random part of about 14,000 reagents. 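Higher correlation or smaller distance means closer resemblance to KSR1 loss; control wells, including KSR1 knockdowns, recur on many plates.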 Further read-outs or replicates are left out here. Reagent sequences are not shown. The record does not give: the time to read-out.

- Test: 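Find knockdowns that reproduce the expression shifts seen after KSR1 loss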 (primary screen)
- Cell system: human HCT116 colon cancer cells
- Reagents: siRNA pool against human genes, 50 nM
- Read-out: 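Six signature mRNAs by branched-DNA multiplex assay, scaled to two housekeeping genes and non-targeting median, log2; matched to mean KSR1 knockdown profile by Pearson correlation and euclidean distance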
- Reading the numbers: mean correlation with KSR1 profile: higher = expression change more like KSR1 knockdown

The first 4 records, to show the layout:
gene | mean correlation with KSR1 profile
ADH5 | -0.103
RRM2B | 0.367
PPP1R2C | -0.576
KIF18A | -0.207

Results, from the start:
gene | mean correlation with KSR1 profile
ADH5 | -0.103
RRM2B | 0.367
PPP1R2C | -0.576
KIF18A | -0.207
WWTR1 | -0.116
SPACA1 | 0.275
SNU13 | 0.164
ASB13 | 0.724
NOP14 | 0.0113
LEMD3 | -0.251
LRRC49 | -0.523
BICRAL | -0.272
LMBRD1 | 0.561
ACAP2 | -0.351
LRFN1 | 0.522
NCAPH | -0.64
GGA1 | -0.47
FAM120A | -0.362
ROCK2 | 0.0786
STMN3 | -0.333
KIF9 | -0.0272
GPR50 | 0.564
PON1 | 0.379
MAVS | -0.14
CCR3 | 0.733
SLCO1A2 | -0.809
GFI1B | 0.741
NR2F6 | -0.523
PPL | 0.266
TM7SF3 | -0.738
ZMYND12 | -0.154
MAP3K5 | 0.102
PPM1A | -0.0166
TMEM121B | -0.113
